Seven molecules from patent US12692310B2, “ASIC1 channel antagonist antibody” (ShanghaiTech University, priority 2019, dated 2026) can be followed below.

Experiment [1] addresses truncated hASIC1a (amino acids 13-464) (human). Briefly: ELISA, biotinylated ΔhASIC1a nanodiscs on avidin, empty nanodiscs as negative control. For orientation: In an ELISA, binding on a coated surface is turned into a signal by an enzyme label.
For experiment [2] the target is unchanged. Briefly: ELISA, biotinylated nanodiscs captured on avidin-coated wells, one antibody concentration, OD405.
Experiment [3] shares this target. Put plainly: Octet, scFv format, ΔhASIC1a nanodiscs. Background: In BLI a coated tip is dipped into the sample, and binding shifts an interference pattern.
Experiment [4] deals with hASIC1a F352A (human). Briefly: flow cytometry, CHO-K1 cells transiently transfected with the mutant labelled hASIC1a F352A (CHOK1-PHE352), ASC06-IgG1 and labelled second antibody. For orientation: A flow cytometer gives signals particle by particle.

These are yes or no findings as the source states them, for the method shown. For part of these data: Binding calls can cover weak binding; strength is not graded here.

B1: ASC02 (scFv, V domains shown)
VH: QVQLVQSGAEVKKPGASMKVSCTTSGYTVTGYYIHWLRQAPGQGFEWMGWINPNLGVTNYAQKFQGRVSMTRDPSIKTAYLELSGLRSDDTAMYYCARASTGGIFYDYWGQGTLVTVSS
VL: NFMLTQPHSMSESPGKTVTISCTRSSGNIASNYVQWYQQRPGSSPTTVIYDDNQRPSGVPDRFSGSIDSISNSASLTISGLKTEDEADYYCQSYDSSSVIFGGGTKLTVLG
notes: also called ASC02 scFv; ASC02 (scFv format)
For the molecule B1, the binding result in experiment [1] and in experiment [2] was “binds” each time.

B2: ASC03 (scFv, V domains shown)
VH: QVQLVESGAEVKKPGSSVKVSCKASGGNFRKYSISWVRQAPGQGLEWMGWISAYNGNTNYAQKLQGRVTMTTDTSTSTAYMELRSLRSDDTAVYYCARDFDPYYDAFDIWGQGTTVTVSS
VL: QSALTQPASVSGSPGQSITISCTGTSSDVGAYNYVSWYQQHPGKAPKLMIYDVSNRLSGVSNRFSGSKSGNRASLTISGLQAEDEADYYCSSYRSGNSLAFGGGTKLTVLG
notes: also called ASC03 scFv; ASC03 (scFv format)
Regarding B2, the binding result in experiment [1] and in experiment [2] was “binds” each time.

B3: ASC05 (scFv, V domains shown)
VH: QVQLVESGAEVKKPGASVRVSCKASGYSFTNYYMHWVRQAPGQGLEWMGIISPSGRSTSFAQKFQGRVTMTRDTSTSTVYMHLSSLRSDDTAVYYCARGAWSTDAFDIWGQGTTVTVSS
VL: QSALTQPASVSGSPGQSITISCTGTSSDVGSYNLVSWYQQHPGKAPKLMIYEGSKRPSGVSNRFSGSKSGNTASLTISGLQAEDEAEYHCSSFTGKGYVFGTGTKLTVLG
notes: also called ASC05 scFv; ASC05 (scFv format)
In the case of B3, the binding entry in experiment [1] and in experiment [2] was “binds” each time.

B4: ASC06 (scFv, V domains shown)
VH: QVQLQQSGGGLVQPGGSLRLSCAASGFTFSSYAMSWVRQAPGKGLEWVSAISGSGGSTYYADSVKGRFTISRDNSKNTLYLQMNSLRAEDTAVYYCAKDSFYGYSKGDWGQGTLVTVSS
VL: QSALTQPASVSGSPGQSITISCTGTSSDVGAYNYVSWYQQQPGKAPKLMIYGVSNRPSGVSNRFSGSKSGNAASLTISGLQAEDEADYYCSSYTSSSTYVFGTGTKLTVLG
With B4, the binding entry in experiment [3], in experiment [1] and in experiment [2] was “binds” throughout.

B5: ASC06-IgG1 (antibody, V domains shown)
VH: QVQLQQSGGGLVQPGGSLRLSCAASGFTFSSYAMSWVRQAPGKGLEWVSAISGSGGSTYYADSVKGRFTISRDNSKNTLYLQMNSLRAEDTAVYYCAKDSFYGYSKGDWGQGTLVTVSS
VL: QSALTQPASVSGSPGQSITISCTGTSSDVGAYNYVSWYQQQPGKAPKLMIYGVSNRPSGVSNRFSGSKSGNAASLTISGLQAEDEADYYCSSYTSSSTYVFGTGTKLTVLG
notes: also called full length (ASC06-IgG1); ASC06-lgG1
With B5, the binding entry in experiment [4] is “no binding”.

B6: ASC01 (scFv, V domains shown)
VH: QVQLVETGPRLVKPSQTLSLTCTVSGGSINSGGYYWGWIRQHSGKGLEWIGYIYPRGSSYYNPSLRSRVTISADTSRNNFSLKLTSVTAADTAVYYCARVGYTGAFDIWGQGTLVTVSS
VL: QAVLTQPSSVSAAPGQKVTISCSGGNSNIGNNYVSWYQQLPGTAPKLLIYDNNKRPSGIPDRFSGSKSGTAATLGITGLQTGDEADYYCGTWDSSLSAGVFGEGTQLTVLG
notes: also called ASC01 scFv; ASC01 (scFv format)
For B6, the binding entry in experiment [1] and in experiment [2] was “binds” throughout.

B7: ASC04 (scFv, V domains shown)
VH: QVQLVQSGAEVKKPGSSVKVSCKASGGTFSTYAINWVRQAPGQGLEWMGWMNPNSGNTGYAQKFQGRVTMTRNTSISTAYMELSSLRSEDTAVYYCARYSYGMDVWGQGTTVTVSS
VL: QAVLTQPSSLSASPGASVSLTCTLRSGINVGAYRIYWYQQKPGSPPQFLLRYKSDSDKQQGSGVPSRFSGSRDASANAGILLISGLRSEDEADYYCAIWHSSAWVFGGGTKLTVLG
notes: also called ASC04 scFv; ASC04 (scFv format)
Turning to B7, the binding result in experiment [3], in experiment [1] and in experiment [2] was “binds” throughout.
